Measurements taken from doi:10.1101/2021.04.08.439049.
Like-named read-outs stand apart in the source and are kept apart here. Results are given in words; binding and its absence hold for the method and conditions named. For some of these results: Binding seen in cells or lysates may run through a third protein. Some entries that bind do so weakly or less than the wild type. For some of these results: Sequences can lack the tags named with a protein. Blank lines part the entries; values can stand above or below the substance they belong to.

Sequences of proteins named here, by UniProt entry; tags and fusion partners are left off. A change or cut given only in a name is not applied to a line headed by its entry.
UniProt P49841, whole entry: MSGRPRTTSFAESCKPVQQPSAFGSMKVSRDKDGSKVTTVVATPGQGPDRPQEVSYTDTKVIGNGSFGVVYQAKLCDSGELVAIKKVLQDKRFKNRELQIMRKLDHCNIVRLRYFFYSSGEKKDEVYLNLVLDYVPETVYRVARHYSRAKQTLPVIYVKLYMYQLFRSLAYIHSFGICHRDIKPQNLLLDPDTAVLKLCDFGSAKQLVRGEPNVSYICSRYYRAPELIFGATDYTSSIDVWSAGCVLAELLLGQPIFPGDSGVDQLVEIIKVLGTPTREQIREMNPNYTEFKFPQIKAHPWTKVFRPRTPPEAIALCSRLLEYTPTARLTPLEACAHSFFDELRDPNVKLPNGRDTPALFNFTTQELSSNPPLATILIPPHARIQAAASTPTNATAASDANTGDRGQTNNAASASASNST
UniProt P10644, whole entry: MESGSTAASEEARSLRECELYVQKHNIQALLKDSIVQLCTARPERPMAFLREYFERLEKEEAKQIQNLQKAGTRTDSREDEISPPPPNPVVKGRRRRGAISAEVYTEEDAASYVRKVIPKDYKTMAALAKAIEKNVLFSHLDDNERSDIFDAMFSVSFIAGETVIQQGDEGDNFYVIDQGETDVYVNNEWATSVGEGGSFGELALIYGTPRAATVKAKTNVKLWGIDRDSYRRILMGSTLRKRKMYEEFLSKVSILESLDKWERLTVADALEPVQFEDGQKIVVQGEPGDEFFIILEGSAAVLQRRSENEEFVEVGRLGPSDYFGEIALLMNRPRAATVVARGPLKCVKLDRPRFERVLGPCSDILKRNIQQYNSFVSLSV

Assays:
[1] = target: T1, His-HK2 (Creative Biomart) (UniProt P52789); experiment: ELISA
T1 sequence: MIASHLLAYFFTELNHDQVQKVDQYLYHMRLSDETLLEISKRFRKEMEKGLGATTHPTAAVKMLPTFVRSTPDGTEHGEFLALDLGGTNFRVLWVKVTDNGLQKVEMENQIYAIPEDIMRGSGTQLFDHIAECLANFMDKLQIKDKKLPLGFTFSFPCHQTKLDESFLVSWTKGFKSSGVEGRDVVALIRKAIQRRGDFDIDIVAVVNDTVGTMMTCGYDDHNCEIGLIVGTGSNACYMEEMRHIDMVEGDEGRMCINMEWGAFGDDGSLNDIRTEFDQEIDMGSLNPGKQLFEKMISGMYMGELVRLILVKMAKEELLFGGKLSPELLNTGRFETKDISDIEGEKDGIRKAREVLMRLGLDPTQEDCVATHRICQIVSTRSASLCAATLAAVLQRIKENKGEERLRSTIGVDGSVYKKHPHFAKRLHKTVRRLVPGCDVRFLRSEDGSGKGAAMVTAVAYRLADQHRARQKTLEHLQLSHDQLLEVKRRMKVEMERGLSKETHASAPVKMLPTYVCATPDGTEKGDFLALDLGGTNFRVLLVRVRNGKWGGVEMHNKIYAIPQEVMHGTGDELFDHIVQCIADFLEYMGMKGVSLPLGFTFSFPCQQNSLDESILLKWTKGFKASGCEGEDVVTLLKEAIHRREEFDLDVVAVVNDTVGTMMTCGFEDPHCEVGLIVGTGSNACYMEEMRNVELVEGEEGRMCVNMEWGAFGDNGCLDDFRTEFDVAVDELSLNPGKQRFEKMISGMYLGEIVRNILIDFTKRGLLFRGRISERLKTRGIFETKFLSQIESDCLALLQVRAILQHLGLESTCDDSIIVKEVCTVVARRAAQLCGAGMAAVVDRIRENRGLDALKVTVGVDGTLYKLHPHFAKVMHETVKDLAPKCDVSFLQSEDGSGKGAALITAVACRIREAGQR

[2] = target: T2, Myc-HK2 protein (OriGene) (UniProt P52789); experiment: ELISA
T2 sequence: T1 sequence

[3] = target: T3, HA-tagged HK2, wild type (catalytically active), in M15-4 CHO cells (rat) (UniProt P27881); experiment: co-IP
T3 sequence: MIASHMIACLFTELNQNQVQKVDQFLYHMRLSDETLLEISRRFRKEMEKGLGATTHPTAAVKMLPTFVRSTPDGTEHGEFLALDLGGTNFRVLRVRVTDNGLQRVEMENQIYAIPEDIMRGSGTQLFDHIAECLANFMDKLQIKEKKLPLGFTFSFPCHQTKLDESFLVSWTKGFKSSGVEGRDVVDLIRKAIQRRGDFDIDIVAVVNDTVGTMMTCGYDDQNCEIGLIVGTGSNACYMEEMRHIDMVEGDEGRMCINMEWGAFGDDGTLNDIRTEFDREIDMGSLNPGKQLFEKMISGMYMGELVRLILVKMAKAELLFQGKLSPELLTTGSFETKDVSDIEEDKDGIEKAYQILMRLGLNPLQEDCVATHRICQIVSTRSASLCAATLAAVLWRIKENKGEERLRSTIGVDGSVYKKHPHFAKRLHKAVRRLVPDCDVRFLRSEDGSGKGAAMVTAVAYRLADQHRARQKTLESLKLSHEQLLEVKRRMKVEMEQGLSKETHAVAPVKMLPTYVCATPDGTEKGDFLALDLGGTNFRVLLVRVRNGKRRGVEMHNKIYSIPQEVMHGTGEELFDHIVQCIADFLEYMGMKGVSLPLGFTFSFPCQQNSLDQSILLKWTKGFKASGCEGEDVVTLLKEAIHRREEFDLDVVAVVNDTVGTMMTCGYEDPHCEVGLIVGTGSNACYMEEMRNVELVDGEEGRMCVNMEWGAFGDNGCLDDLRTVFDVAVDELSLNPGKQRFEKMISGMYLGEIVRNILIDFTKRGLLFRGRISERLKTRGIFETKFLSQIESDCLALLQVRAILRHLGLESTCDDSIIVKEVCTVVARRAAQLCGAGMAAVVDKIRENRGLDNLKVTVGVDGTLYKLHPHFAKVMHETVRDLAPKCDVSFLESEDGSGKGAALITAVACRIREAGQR

[4] = target: T4, HA-tagged HK2 (HK2-HA), wild type, in HEK293 cells (rat) (UniProt P27881); experiment: co-IP
T4 sequence: T3 sequence

[5] = target: T4, HA-tagged HK2 (HK2-HA), wild type, in HEK293 cells (rat); experiment: co-IP; remark: listed apart in the source
[6] = target: T5, endogenous HK2 of HEK293 cells (human (endogenous in HEK293)) (UniProt P52789); experiment: co-IP
T5 sequence: T1 sequence

Substance: GST-GSK3b (Abcam) (from UniProt P49841 1-420) (enzyme)
binding [1]: binds
binding [2]: binds

Substance: Myc-GSK3β nonphosphorylatable mutant (S9A) in HEK293 cells (from UniProt P49841 1-420) (enzyme)
binding [4]: binds weakly
binding [5]: binds

Substance: endogenous GSK3β of HEK293 cells (from UniProt P49841 1-420) (enzyme)
binding [6]: binds

Continued, values first:

binding [3]: binds
Substance: Myc-GSK3β in M15-4 CHO cells (from UniProt P49841 1-420) (enzyme)

binding [1]: binds
Substance: Myc-PRKAR1α (Creative Biomart) (from UniProt P10644 1-381)

binding [5]: binds
Substance: endogenous PRKAR1a of HEK293 cells (from UniProt P10644 1-381)

binding [4]: binds weakly
binding [5]: binds
Substance: myc-GSK3β wild type in HEK293 cells (from UniProt P49841 1-420) (enzyme)
